Results published in doi:10.1101/2022.07.18.500419.
Results are given in words; binding and its absence hold for the method and conditions named. In cells and extracts the contact can be indirect. Binding calls can cover weak binding; strength is not graded here.

Chains of the proteins cited; added tags and fusions are not shown. Residues count along the entry.
UniProt Q8IFM5, 25-526: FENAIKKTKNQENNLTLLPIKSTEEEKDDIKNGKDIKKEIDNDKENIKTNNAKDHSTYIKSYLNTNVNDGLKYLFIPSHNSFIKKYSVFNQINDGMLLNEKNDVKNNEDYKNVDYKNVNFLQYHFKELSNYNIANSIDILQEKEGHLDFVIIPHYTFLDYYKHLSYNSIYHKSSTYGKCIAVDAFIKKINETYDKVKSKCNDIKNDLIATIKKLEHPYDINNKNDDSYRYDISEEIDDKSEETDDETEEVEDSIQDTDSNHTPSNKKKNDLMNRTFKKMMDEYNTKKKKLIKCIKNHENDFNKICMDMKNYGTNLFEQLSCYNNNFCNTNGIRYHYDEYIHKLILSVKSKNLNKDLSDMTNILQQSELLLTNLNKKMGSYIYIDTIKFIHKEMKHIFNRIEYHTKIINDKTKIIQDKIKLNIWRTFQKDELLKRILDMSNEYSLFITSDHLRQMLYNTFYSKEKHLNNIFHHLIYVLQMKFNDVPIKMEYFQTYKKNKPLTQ

Molecular target: full-length recombinant RH5 protein with His-tag (reticulocyte binding protein homologue 5) (Plasmodium falciparum) (UniProt Q8IFM5)
Test: pull-down

CD44 (from UniProt P16070-12)
binding: binds
